The assay addresses T1, phosphorylated mixed lineage kinase domain-like (p-MLKL (Ser345)) (rat (endogenous in hippocampal CA1)) (UniProt D3ZKP6).
T1 sequence (chain, phosphoserine at 345 (printed as p-MLKL (Ser345))): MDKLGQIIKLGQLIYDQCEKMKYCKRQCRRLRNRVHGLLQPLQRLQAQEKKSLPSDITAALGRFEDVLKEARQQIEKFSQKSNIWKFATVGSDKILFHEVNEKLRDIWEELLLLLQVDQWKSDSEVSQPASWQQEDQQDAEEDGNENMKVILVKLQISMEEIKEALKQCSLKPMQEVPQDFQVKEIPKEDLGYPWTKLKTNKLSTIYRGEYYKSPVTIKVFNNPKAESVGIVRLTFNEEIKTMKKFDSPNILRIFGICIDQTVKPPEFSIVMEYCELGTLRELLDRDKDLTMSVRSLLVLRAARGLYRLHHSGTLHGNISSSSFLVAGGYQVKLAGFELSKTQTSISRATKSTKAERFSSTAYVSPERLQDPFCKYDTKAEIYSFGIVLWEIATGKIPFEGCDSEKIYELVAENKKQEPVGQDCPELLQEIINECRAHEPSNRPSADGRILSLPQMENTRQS
Put plainly: co-IP; 0.6 mg of protein from rat hippocampal CA1 incubated with rabbit monoclonal antibody against p-MLKL overnight at 4 °C, protein G agarose beads 4 h at 4 °C, washed five times with PBS containing 1% Tween, Western blotting; Sham, tGCI (4 and 48 h after reperfusion), hypoxic preconditioning or MLKL siRNA before tGCI. A general note: A western blot detects proteins with antibodies after separation by electrophoresis.

Results are given in words; binding and its absence hold for the method and conditions named. In cells and extracts the contact can be indirect. Some entries that bind do so weakly or less than the wild type.

B1: receptor interacting protein (RIP) 3 (protein, UniProt Q9Z2P5 1-478)
chain: MSSVKLWLNGASSISLVGSEELENLGFVGKGGFGAVFRARHTAWNLDVAVKIVNSKKISREVKAMVNLRHENVLLLLGVTENLEWDYVYGPALVTGFMENGSLSGLLQPSCPRPWPLLCRLLEEVVLGMCYLHSLNPSLLHRDLKPSNVLLDPELHAKLADFGLSTFQGGSQSGSGSGSRDSGGTLAYLAPELLDNDGKASKASDVYSFGVLVWTVLAGREAEVVDKTSLIRGAVCNRQRRPPLTELPPDSPETPGLEGLKELMTHCWSSEPKDRPSFQDCESKTNNVYILVQDKVDAAVSKVKHYLSQYRSSDTKLSARESSQKGTEVDCPRETIVYEMLDRLHLEEPSGSVPERLTSLTERRGKEASFGHATPAGTSSDTLAGTPQIPHTLPSRGTTPRPAFTETPGPDPQRNQGDGRNSNPWYTWNAPNPMTGLQSIVLNNCSEVQIGQHNCMSVQPRTAFPKKEPAQFGRGRGW
Consider B1, for which the binding entry is “binds”.

B2: interleukin-1 type 1 receptor (IL-1R1) (receptor, UniProt Q02955 20-576)
chain: LETDKCTEYPNEVISFSSVNEIDIRSCPLTPNEMHGGTIIWYKNDSKTPISADKDSRIHQQNEHLWFVPAKMEDSGYYYCIMRNSTYCLKTKITMSVLENDPGLCYNTQASFIQRLHVAGDGSLVCPYLDFFKDENNELPKVQWYKNCKPLPLDDGNFFGFKNKLMVMNVAEEHRGNYTCRTSYTYQGKQYPVTRVITFITIDDSKRDRPVIMSPRNETMEADPGSTIQLICNVTGQFTDLVYWKWNGSEIEWDDPILAEDYQFLEHPSAKRKYTLITTLNVSEVKSQFYRYPFICFVKNTHILETAHVRLVYPVPDFKNYLIGGFAIFTATAVFCACIYKVFKVDIVLWYRDSCSDFLPRKASDGRTYDAYVLYPKTYGEGSFAYLDTFVFKLLPEVLEGQFGYKLFICGRDDYVGEDTIEVTNENVKRSRRLIIILVRDMGSFSCLGQSSEEQIAIYDALIREGIKIILLELEKIQDYEKMPESIQFIKQKHGAICWSGDFKERPQSAKTRFWKNLRYQMPAQRRSPLSKHHLLTLDPVLDTKEKLQAETHLPLG
As to B2, the binding result was “binds”.

The record behind these values is article PMC8056617.
